From PubChem BioAssay AID493014 (National Center for Advancing Translational Sciences (NCATS), 2011)
The list shows a part of the results. These are further read-outs of the screen, such as a control signal, another cell line or another target. No call is given for them. Compounds called inactive in the main read-out are mostly missing here. Words in brackets tell the shape of the fitted curve; partial curves, single points and poor fits give uncertain potencies.

Experiment: qHTS Assay to Find Inhibitors of Chronic Active B-Cell Receptor Signaling
Details: ABC-DLBCL IkBa-CBG/CBR reporter, luminescence ratio (green luciferase fused to IkBa over red control in TMD8 lymphoma cells), 4 h
In short: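 Concentration-response series (up to 46 uM) were applied to TMD8 dual-reporter cells for 4 h at 37C with doxycycline. Green/red ratio, after filter-overlap correction, defined %Activity; red signal alone was normalised to basal cells and zero luminescence.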

[1] = measured here: CBR red luminescence, cell number
[2] = measured here: IkBa-CBG green luminescence

Clc1ccc(-c2cn3cc(Cl)ccc3n2)cc1
AC50 [1]: 15.8 µM [falling, single point]

O=C(OCC#CCSc1nnc(-c2ccc(Br)cc2)o1)c1cccs1
AC50 [1]: 29.1 µM [rising, single point]

Cc1cn([C@@H](CCCCNC(=O)OC(C)(C)C)C(=O)NCCCCCCCCCCC(=O)N2CCN(C(=O)OC(C)(C)C)CC2)nn1
AC50 [1]: 29.1 µM [falling, single point]

COc1cc(/C=N/N=C(/N)c2nonc2N)cc(Br)c1OCc1ccccc1C
AC50 [1]: 14.6 µM [rising, partial curve] | AC50 [2]: 32.6 µM [falling, partial curve, poor fit]

Fc1cccc(CCN2CCNC[C@@H]2CC2CCCCC2)c1
AC50 [1]: 14.6 µM [falling, partial curve, poor fit]

C/C(=N\NC(=S)NCCc1ccccc1)c1cccc(Br)c1
AC50 [1]: 35.5 µM [falling, single point] | AC50 [2]: 35.5 µM [falling, partial curve, poor fit]

CCOc1ccc(-n2ccnc(SCC(=O)Nc3ccc(OC)cc3OC)c2=O)cc1
AC50 [1]: 0.326 µM [rising, full curve, poor fit]

CCCCNc1nnc(SCC(=O)c2c[nH]c3ccccc23)s1
AC50 [1]: 29.1 µM [falling, single point]

O=C(NCCc1ccccc1)c1ccc(Cl)cc1[N+](=O)[O-]
AC50 [1]: 12.6 µM [rising, single point]

CC1CC(N(C(=O)c2ccc(Cl)cc2)c2ccccc2)c2ccccc2N1C(=O)c1ccco1 (configuration not stated)
AC50 [1]: 16.4 µM [falling, partial curve, poor fit]

COc1ccccc1-n1cnnc1SCC(=O)c1c[nH]c2ccccc12
AC50 [1]: 2.06 µM [falling, full curve]

Cc1ccc(C(=O)Nc2nnc(-c3ccncc3)o2)cc1
AC50 [1]: 11.2 µM [falling, single point] | AC50 [2]: 25.1 µM [falling, single point]

COc1ccc(C2CC(c3ccccc3)=NN2c2ccc(/C=N/NC(=O)c3ccncc3)cc2)cc1 (configuration not stated)
AC50 [1]: 3.98 µM [rising, full curve, poor fit]

CCN1CCN(c2ncnc3c2cnn3-c2cccc(C)c2)CC1
AC50 [1]: 25.1 µM [falling, single point]

CN(C)CCC=C1c2ccccc2C=Cc2ccccc21
AC50 [1]: 29.1 µM [falling, single point]

CC(C)Nc1nc(NC(C)C)nc(N(C#N)CCOc2ccc(Cl)cc2Cl)n1
AC50 [2]: 25.9 µM [rising, partial curve, poor fit]

CCOc1cc(C)c(C(C)C)cc1S(=O)(=O)n1cnc(C)c1
AC50 [1]: 12.6 µM [falling, partial curve]

Cc1ccc(N2C(=O)N3[C@H](c4ccc(F)cc4)[C@@H]4C(=O)N(C5CCCCC5)C(=O)[C@@H]4[C@]3(C)C2=O)cc1
AC50 [1]: 12.6 µM [falling, partial curve]

O=C(CSc1ncccc1C(=O)Oc1ccccc1Cl)Nc1ccccc1Cl
AC50 [1]: 1.26 µM [rising, partial curve, poor fit]

O=C(Cc1ccc(F)cc1)OCN1C(=O)c2ccccc2C1=O
AC50 [1]: 35.5 µM [falling, single point]

COc1ccc(OC)c(-c2csc(N(C)C(=O)Cc3ccccc3)n2)c1
AC50 [1]: 0.178 µM [rising, full curve, poor fit]

O=C1CCc2cc(S(=O)(=O)NC(C(=O)N3CCN(c4ccccn4)CC3)c3ccccc3)ccc2N1 (configuration not stated)
AC50 [1]: 12.6 µM [falling, partial curve, poor fit]

N#C/C(=C\c1ccc(C#N)cc1)C(=O)c1ccccc1
AC50 [1]: 4.47 µM [falling, full curve, poor fit]

Cc1c(Cl)cccc1NC(=O)CSc1nc(=O)n(Cc2ccco2)c2c1CCC2
AC50 [1]: 25.1 µM [falling, single point]

CCOC(=O)N1CCN(C(=O)c2ccc3nc4ccc(Cl)cc4c(=O)n3c2)CC1
AC50 [1]: 6.51 µM [rising, full curve, poor fit]

CC(=O)Nc1nc(C2COc3ccccc3O2)cs1 (configuration not stated)
AC50 [1]: 0.103 µM [rising, full curve, poor fit]

COC(=O)c1c(C)[nH]c(C(=O)OCC(=O)NCC(C)C)c1C
AC50 [1]: 14.6 µM [falling, partial curve, poor fit]

COC(=O)C(NC(=O)c1ccccc1C)(Nc1ncc(S(=O)(=O)c2ccc([N+](=O)[O-])cc2)s1)C(F)(F)F (configuration not stated)
AC50 [1]: 35.5 µM [falling, single point]

COc1ccc(C(=O)N/N=C/c2sc(=O)n(Cc3cccc(C(=O)O)c3)c2Cl)cc1
AC50 [1]: 10 µM [falling, partial curve, poor fit]

Brc1ccc(-c2ccc(/C=N/Nc3nncc(-c4ccccc4)n3)o2)cc1
AC50 [1]: 2.59 µM [falling, full curve, poor fit]

COc1ccccc1N1CCN(C(=O)CSc2ncnc3scc(-c4ccccc4)c23)CC1
AC50 [1]: 0.231 µM [rising, full curve, poor fit]

COc1ccccc1CNCC(O)(c1ccc(F)cc1)c1ccc(F)cc1
AC50 [1]: 17.8 µM [falling, single point]

Cc1nc2c(cnn2-c2ccccc2)c(=O)n1/N=C/c1ccccc1
AC50 [1]: 35.5 µM [rising, single point]

Cc1cc(NC(=O)CSCC(=O)Nc2nc3c(C)cccc3s2)no1
AC50 [1]: 11.6 µM [falling, partial curve, poor fit]

Cc1cc(NCc2ccco2)nc2cc(O)ccc12
AC50 [1]: 11.6 µM [rising, partial curve]

COc1ccc(OCC(=O)Nc2cccc(OC)c2)cc1
AC50 [1]: 4.61 µM [falling, full curve] | AC50 [2]: 29.1 µM [rising, partial curve, poor fit]

Cc1ccc(S(=O)(=O)c2nc(-c3ccccc3Cl)oc2NCCCN2CCOCC2)cc1
AC50 [1]: 7.08 µM [falling, partial curve]

c1ccc2c(c1)OCC(CNCC1COc3ccccc3O1)O2 (configuration not stated)
AC50 [1]: 20 µM [rising, partial curve, poor fit]
